Consider one sequence from US20060281078, “Human fast-1 gene” (published 2006).

The data set has as its target T1, hFAST-1 forkhead domain (FAST-FH) (Homo sapiens) (UniProt O75593).
T1 sequence (limits assumed): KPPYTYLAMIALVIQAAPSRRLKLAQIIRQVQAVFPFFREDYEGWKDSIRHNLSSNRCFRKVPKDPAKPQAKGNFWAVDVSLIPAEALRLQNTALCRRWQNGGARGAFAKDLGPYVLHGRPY
Description: EMSA. The settings on record: bound less well than full length; purified recombinant protein; protein details: GST fusion; label: 32P. (A gel shift assay detects complexes by their altered migration in electrophoresis.)

A weaker result is weaker than the reference pair of the same experiment. Tags and fusion partners may be left off the protein sequences shown.

As for “CGGATTGTGTATTGGCTGTAC (double strand) [FBE]”, the binding result is recorded as “binds more weakly”.
